For 1 substance, binding results are on record in article PMC6314972.

By UniProt entry, the sequences of proteins in these tests, tags left out.
UniProt Q9UBN7: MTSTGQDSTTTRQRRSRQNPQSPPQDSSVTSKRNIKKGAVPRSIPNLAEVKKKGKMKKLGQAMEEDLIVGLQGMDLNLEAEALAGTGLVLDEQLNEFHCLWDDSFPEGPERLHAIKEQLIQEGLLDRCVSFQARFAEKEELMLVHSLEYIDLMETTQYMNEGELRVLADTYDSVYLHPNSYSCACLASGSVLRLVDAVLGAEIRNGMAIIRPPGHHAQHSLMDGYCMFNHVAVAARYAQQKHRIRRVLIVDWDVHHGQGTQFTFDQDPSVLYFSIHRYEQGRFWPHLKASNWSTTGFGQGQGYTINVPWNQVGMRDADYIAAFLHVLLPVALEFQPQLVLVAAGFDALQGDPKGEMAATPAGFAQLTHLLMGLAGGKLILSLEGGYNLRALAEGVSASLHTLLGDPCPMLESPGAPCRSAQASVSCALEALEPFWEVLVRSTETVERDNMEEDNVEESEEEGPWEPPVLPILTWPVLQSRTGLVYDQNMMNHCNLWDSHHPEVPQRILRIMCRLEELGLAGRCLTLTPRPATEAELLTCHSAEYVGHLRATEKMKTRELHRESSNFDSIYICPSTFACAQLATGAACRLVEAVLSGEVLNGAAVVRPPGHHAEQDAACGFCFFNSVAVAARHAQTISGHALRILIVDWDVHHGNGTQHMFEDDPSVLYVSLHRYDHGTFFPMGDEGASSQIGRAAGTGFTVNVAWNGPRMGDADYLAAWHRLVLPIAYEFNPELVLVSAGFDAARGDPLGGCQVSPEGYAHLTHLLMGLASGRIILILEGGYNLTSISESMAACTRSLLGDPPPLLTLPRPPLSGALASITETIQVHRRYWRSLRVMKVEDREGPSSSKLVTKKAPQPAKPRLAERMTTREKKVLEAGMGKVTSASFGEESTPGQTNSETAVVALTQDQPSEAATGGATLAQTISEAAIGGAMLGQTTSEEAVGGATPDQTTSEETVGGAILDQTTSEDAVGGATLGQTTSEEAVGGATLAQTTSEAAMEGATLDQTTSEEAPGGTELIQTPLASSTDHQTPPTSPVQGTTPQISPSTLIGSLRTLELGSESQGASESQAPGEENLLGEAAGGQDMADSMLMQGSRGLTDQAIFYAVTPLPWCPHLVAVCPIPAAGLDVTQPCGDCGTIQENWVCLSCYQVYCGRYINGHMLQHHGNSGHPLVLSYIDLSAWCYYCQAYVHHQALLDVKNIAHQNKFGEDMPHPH

The target of the experiment is T1, myocardin-related transcription factor A (MRTF-A) (human (endogenous in HEK293)) (UniProt Q969V6).
T1 sequence: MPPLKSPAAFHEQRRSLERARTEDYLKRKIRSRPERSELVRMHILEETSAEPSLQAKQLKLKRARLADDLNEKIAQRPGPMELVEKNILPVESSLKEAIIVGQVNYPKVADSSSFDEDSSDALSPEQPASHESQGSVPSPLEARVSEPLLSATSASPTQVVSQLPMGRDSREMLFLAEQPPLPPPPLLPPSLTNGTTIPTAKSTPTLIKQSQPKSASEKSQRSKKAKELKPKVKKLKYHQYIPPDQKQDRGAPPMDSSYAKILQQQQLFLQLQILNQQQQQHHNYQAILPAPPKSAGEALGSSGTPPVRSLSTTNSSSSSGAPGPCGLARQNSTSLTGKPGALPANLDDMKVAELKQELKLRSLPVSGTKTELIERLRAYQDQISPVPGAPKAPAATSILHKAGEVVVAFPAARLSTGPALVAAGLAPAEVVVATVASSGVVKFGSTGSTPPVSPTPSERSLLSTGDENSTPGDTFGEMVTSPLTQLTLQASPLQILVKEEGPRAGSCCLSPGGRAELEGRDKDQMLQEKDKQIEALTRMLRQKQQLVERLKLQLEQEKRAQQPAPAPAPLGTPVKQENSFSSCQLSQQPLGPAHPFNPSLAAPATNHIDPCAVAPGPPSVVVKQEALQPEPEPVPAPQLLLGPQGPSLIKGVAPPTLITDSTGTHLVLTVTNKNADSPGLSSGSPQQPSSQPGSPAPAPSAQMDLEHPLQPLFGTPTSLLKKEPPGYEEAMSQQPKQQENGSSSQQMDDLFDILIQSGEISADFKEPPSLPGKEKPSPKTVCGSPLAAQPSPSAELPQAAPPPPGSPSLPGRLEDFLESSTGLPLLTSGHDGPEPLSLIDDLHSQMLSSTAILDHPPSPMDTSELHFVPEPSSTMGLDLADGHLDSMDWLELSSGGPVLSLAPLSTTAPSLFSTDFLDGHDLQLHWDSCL
The experiment in a line: co-IP; lysate of HEK293 cells overexpressing HDAC6; incubated overnight at 4°C with 1 to 2 μg MRTF-A antibody or IgG control; Protein A/G agarose beads; Western blot for HDAC6 and MRTF-A. For orientation: In western blotting, separated proteins are transferred to a membrane and probed.

These are yes or no findings as the source states them, for the method shown. Binding seen in cells or lysates may run through a third protein. Some binding calls cover weakened binding; strength is not graded here.

“histone deacetylase 6 (HDAC6), FLAG-tagged (from UniProt Q9UBN7 1-1215) (enzyme)”: the binding entry was “binds”.
